# Reference: paper PMC7819943, “Rice protein-binding microarrays: a tool to detect cis-acting elements near promoter regions in rice”
# This is one part of the list.
# Molecular target: T1, OsSMF1 (Oryza sativa, UniProt Q6ZLB0 1-436)
# T1 sequence: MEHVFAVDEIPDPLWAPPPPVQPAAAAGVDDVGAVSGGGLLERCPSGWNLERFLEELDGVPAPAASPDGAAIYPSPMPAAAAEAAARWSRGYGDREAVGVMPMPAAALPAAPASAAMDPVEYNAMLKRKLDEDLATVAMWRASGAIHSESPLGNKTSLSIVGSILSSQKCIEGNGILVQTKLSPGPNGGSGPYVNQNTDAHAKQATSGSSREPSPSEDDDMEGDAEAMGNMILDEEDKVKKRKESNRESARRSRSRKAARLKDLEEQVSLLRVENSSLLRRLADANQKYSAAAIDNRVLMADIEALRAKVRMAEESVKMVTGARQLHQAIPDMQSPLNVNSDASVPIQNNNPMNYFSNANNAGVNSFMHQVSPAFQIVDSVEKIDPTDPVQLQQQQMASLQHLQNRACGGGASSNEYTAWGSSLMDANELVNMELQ
# Test: protein-binding microarray (RPBM); PBS, 2% BSA, 51.3 ng/ul salmon testes DNA, 50 uM zinc acetate, 200 nM TF, 25 C, 1 h; high values mean tight binding
# Details: protein: recombinant; tags: N-terminal polyhistidine and DsRed monomer fusion (pET32a); chain copies: 2; label: CyDye5-dUTP incorporated in the synthesized complementary strand; 3' TTTTT single-stranded linker to array surface; dsDNA, one strand shown
# Method in brief: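 An Axon 4000B scanner gave the binding signal as per-feature fluorescence intensity in arbitrary units. This followed washing of a custom Agilent array that had been incubated for 1 h at 25 °C with 200 nM protein in PBS, 2% BSA, salmon testes DNA and 50 µM zinc acetate. The proteins were transcription factors fused at the N-terminus to polyhistidine and DsRed, expressed in E. coli BL21-CodonPlus and purified on Ni–NTA.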
row,Sequence,binding signal
1,CCCACCTGTAAGTGACGTTACGCGTGTGGTGATTGGCTGGCGGAGTCACCTAGTGCAG,4410 fluorescence intensity (a.u.)
2,TTCTGCGTGTGAGTGGGTTTTCTTCCTAGTGGTTTAAATACGGAGTCACCTAGTGCAG,3970 fluorescence intensity (a.u.)
3,GCACGATCTATCACAAAACTACAGATTTAAGAACTTATTTCGGAGTCACCTAGTGCAG,3520 fluorescence intensity (a.u.)
4,GGGTTGGATATACGGGTCGGTGACGGAGGACGTGGTCACCCGGAGTCACCTAGTGCAG,6140 fluorescence intensity (a.u.)
5,CCGTTGAATGTGCCAGACAAACTGAGTGTAATTTAATATTCGGAGTCACCTAGTGCAG,65100 fluorescence intensity (a.u.)
6,CTCAGCCTCCCCACCCACGCGTCTCACCGGAGCTCCGCCGCGGAGTCACCTAGTGCAG,4390 fluorescence intensity (a.u.)
7,GCCTGGTAATACGTACTACGCGGGAACCAAATCTTACGCACGGAGTCACCTAGTGCAG,3310 fluorescence intensity (a.u.)
8,ACAGCGACCCGATCACTCTCTCACTGTCTCGTTCACGTAGCGGAGTCACCTAGTGCAG,4210 fluorescence intensity (a.u.)
9,AGGAGAAACCGATGGCTCTTCCGCGTGTCACGCGTGACGCCGGAGTCACCTAGTGCAG,4250 fluorescence intensity (a.u.)
10,TCCCGCTCGCCACCACCTCCTCCTCGAACCCCTCCGGCAACGGAGTCACCTAGTGCAG,3230 fluorescence intensity (a.u.)
11,AACGCTACCTAGATGCTTCGCTGCTATGAGTCATATATAGCGGAGTCACCTAGTGCAG,5200 fluorescence intensity (a.u.)
12,ACCTCTTTGTGAGGTGTCCTCTGACGTGTAGTCCAACATACGGAGTCACCTAGTGCAG,7630 fluorescence intensity (a.u.)
13,CATGCACTTGTGTGCCACGTGTATGCGCTGAGGTAAAGTTCGGAGTCACCTAGTGCAG,21200 fluorescence intensity (a.u.)
14,CAACATGCAACCATACCACATCATCACCCACTAGCAATAACGGAGTCACCTAGTGCAG,4890 fluorescence intensity (a.u.)
15,TATGGTGATCCTAGCGATGAAACCGCCTAGCCCCGTTAGGCGGAGTCACCTAGTGCAG,64600 fluorescence intensity (a.u.)
16,AATTAATGAAGTGGAGTGCCTTGGCAATCTGTGAGGTACACGGAGTCACCTAGTGCAG,3380 fluorescence intensity (a.u.)
17,CACAACCTCCCGTCTCAGTGACGTCGCGCCCGTAGTCCCGCGGAGTCACCTAGTGCAG,4670 fluorescence intensity (a.u.)
18,CAACCCGGCTGGAACCAGTCATCAGTCCATCACGATATACCGGAGTCACCTAGTGCAG,3260 fluorescence intensity (a.u.)
19,TCACACATATCACGCATATCATACGTCACTGTTGGAGATTCGGAGTCACCTAGTGCAG,8360 fluorescence intensity (a.u.)
20,CTTGTTCGTAAAAGTTTTATAATTTTACACGTATATCCTTCGGAGTCACCTAGTGCAG,5220 fluorescence intensity (a.u.)
21,TGAAATTTATTAATCAATGAACTAAATTACTCCCTCGAGTCGGAGTCACCTAGTGCAG,20300 fluorescence intensity (a.u.)

# Random excerpt: two records from the list.
row,Sequence,binding signal
18,CAACCCGGCTGGAACCAGTCATCAGTCCATCACGATATACCGGAGTCACCTAGTGCAG,3260 fluorescence intensity (a.u.)
17,CACAACCTCCCGTCTCAGTGACGTCGCGCCCGTAGTCCCGCGGAGTCACCTAGTGCAG,4670 fluorescence intensity (a.u.)

# Remaining list, next part

row,Sequence,binding signal
1,ATGCTATCTGAGGACATTCCAATACAGCTCTTCAACTGCACGGAGTCACCTAGTGCAG,28100 fluorescence intensity (a.u.)
2,GAGGAAGGAGGAACAAGGAGGAACTCTACACGTCATGGTGCGGAGTCACCTAGTGCAG,8720 fluorescence intensity (a.u.)
3,CGTGCAAGATGTGCGCCTTATATCATCAGCTTGCTTTCCTCGGAGTCACCTAGTGCAG,3810 fluorescence intensity (a.u.)
4,GTGGGCCCCACATGTCAGTGGGTCCCACCCGTACTTTTGGCGGAGTCACCTAGTGCAG,3780 fluorescence intensity (a.u.)
5,CGGATACCCGGACCCGATGGGCACGGGCGTGGGTGTGACTCGGAGTCACCTAGTGCAG,3200 fluorescence intensity (a.u.)
6,AATCTTTTGAGCCTAATTACGTCATGATTTGACAATGTGACGGAGTCACCTAGTGCAG,4250 fluorescence intensity (a.u.)
7,AACCCTTGCCGTCGCGGTCGTGTGATCGTGTCGTGCGCTGCGGAGTCACCTAGTGCAG,3720 fluorescence intensity (a.u.)
8,ATCTTGTTAGTAGATGATGATGTGGCATCTTTGCATGTCACGGAGTCACCTAGTGCAG,18200 fluorescence intensity (a.u.)
9,ATCATGAATTACATCAGAGATCAGTGACACGCCATGGCAGCGGAGTCACCTAGTGCAG,5380 fluorescence intensity (a.u.)
10,CAATATGCCACTCCTATGGAGTGGCTTTAACAGGATGCCACGGAGTCACCTAGTGCAG,3340 fluorescence intensity (a.u.)
11,TTTCTCCAAGAACATCTGATCAAGAATCCGCATGGCTGAACGGAGTCACCTAGTGCAG,3210 fluorescence intensity (a.u.)
12,TCATGGGGAGTGGTTGAACTGTTTACGCACGTACACTCTGCGGAGTCACCTAGTGCAG,3370 fluorescence intensity (a.u.)
13,AGGAAGGGGTGCAAAGCTGAGGTAGGAATCGGGGATGAGCCGGAGTCACCTAGTGCAG,3760 fluorescence intensity (a.u.)
14,TGTTGTGTTGTTGTCCTCAATTAGTCACCAATCAACTATTCGGAGTCACCTAGTGCAG,3990 fluorescence intensity (a.u.)
15,CTTGCATGCAACGTTACACGTAGCACACTGGACACCGGAGCGGAGTCACCTAGTGCAG,5610 fluorescence intensity (a.u.)
16,TTACCTCATCCGGTTTAATATATGACGTTTAGACATGCGTCGGAGTCACCTAGTGCAG,3540 fluorescence intensity (a.u.)
17,CGCGCCACGTGTCTGTCCTCTCCCTGGCAAATGGCAATCCCGGAGTCACCTAGTGCAG,21500 fluorescence intensity (a.u.)
18,TCGCACACAGCTCAGCAGCTAACTAGTCCAATGGAGCAGCCGGAGTCACCTAGTGCAG,3260 fluorescence intensity (a.u.)
19,GAGAGCGGATGACATGTGATCGGGGACGTCGGTGGTGGCCCGGAGTCACCTAGTGCAG,3230 fluorescence intensity (a.u.)
20,TACTGGTATATATCTACGTGTTTGAAGTACAACACATTAACGGAGTCACCTAGTGCAG,4090 fluorescence intensity (a.u.)
21,GACGAGGATAAGGCAACAAGCTCAGTCATGGGCCGCCAACCGGAGTCACCTAGTGCAG,3520 fluorescence intensity (a.u.)
